Assay results: patent publication US20210008070A1, “TARGETING MINIMAL RESIDUAL DISEASE IN CANCER WITH CD36 ANTAGONISTS” (VIB VZW, priority 2018, published 2021)
At least one structure is not confirmed: it was looked up by name or label, or the drawing left a doubt.

System: GFRA2-positive MEL006 cells
Experiment: FACS of GFRA2-positive cells in MEL006 cultures
Details: added to DT

## CNC(=O)c1ccc(Nc2ncc(C(F)(F)F)c(NCc3nccnc3N(C)S(C)(=O)=O)n2)cc1 [defactinib]
  drug-dependent emergence of the GFRA2-high cell population: diminished the drug-dependent emergence of the GFRA2-high cell population in a dose-dependent manner
